Experimental data: PubChem BioAssay AID1224830 (NIAID, 2016)
Screen: 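Genes whose knock-down alters the TNF-alpha reporter response to LPS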 (primary screen). Cells: human THP-1 monocytic leukaemia cells, TNF dual-luciferase reporter clone, PMA-differentiated to macrophage-like cells. Reagent: siRNA pool against human genes, 50 nM. Time to read-out: LPS for 4 h, given about 3 days after siRNA transfection. Conditions: bacterial LPS (TLR4 ligand), 10 ng/ml. Detection: 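TNF firefly reporter luminescence divided by renilla, normalised to the plate median, then turned into a robust z-score for each replicate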. Scale: TNF reporter robust z-score: higher = stronger TNF reporter response to LPS. Hit rule: 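Each well counts as active if its z-score is over 2.8 or under -1.5; controls are left without a call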.
The deposit covers about 18,000 reagents; shown is a random part of them. About 2,900 of all reagents (16%) were called active. 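Calls are made per well; low scores hint the gene aids the LPS response, high scores that it dampens it.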 Repeated entries: four replicate wells of each siRNA pool.

For TMEM182 (GeneID 130827) [SID315461877], the values are TNF reporter robust z-score 1.94; inactive.
Knock-down of TMEM182 (GeneID 130827) [SID315461877] resulted in: TNF reporter robust z-score 2.75; inactive.
Knock-down of TMEM182 (GeneID 130827) [SID315461877] resulted in: TNF reporter robust z-score 1.92; inactive.
After knock-down of NAT10 (GeneID 55226) [SID315457514], the screen gave TNF reporter robust z-score 0.25; inactive.
After knock-down of NAT10 (GeneID 55226) [SID315457514], the screen gave TNF reporter robust z-score 0.76; inactive.
NAT10 (GeneID 55226) [SID315457514] gave TNF reporter robust z-score -0.73; inactive.
NAT10 (GeneID 55226) [SID315457514] scored TNF reporter robust z-score 1.04; inactive.
Silencing of LSR (GeneID 51599) [SID315456798] gave: TNF reporter robust z-score -1.41; inactive.
After knock-down of LSR (GeneID 51599) [SID315456798] the results were TNF reporter robust z-score -0.57; inactive.
Silencing of LSR (GeneID 51599) [SID315456798] came out at: TNF reporter robust z-score -0.88; inactive.
Against LSR (GeneID 51599) [SID315456798], the values are TNF reporter robust z-score -0.79; inactive.
RPUSD3 (GeneID 285367) [SID315463844] gave TNF reporter robust z-score -0.83; inactive.
After knock-down of RPUSD3 (GeneID 285367) [SID315463844], the screen gave TNF reporter robust z-score -0.51; inactive.
With knock-down of RPUSD3 (GeneID 285367) [SID315463844], the screen gave TNF reporter robust z-score -0.01; inactive.
Against RPUSD3 (GeneID 285367) [SID315463844], the entry reads TNF reporter robust z-score -1.06; inactive.
After knock-down of MAG (GeneID 4099) [SID315449851] the results were TNF reporter robust z-score 1.62; inactive.
After knock-down of MAG (GeneID 4099) [SID315449851] the results were TNF reporter robust z-score 0.25; inactive.
With knock-down of MAG (GeneID 4099) [SID315449851], the screen gave TNF reporter robust z-score 0.65; inactive.
Silencing of MAG (GeneID 4099) [SID315449851] came out at: TNF reporter robust z-score 1.07; inactive.
For LZTS1 (GeneID 11178) [SID315454666] the deposit lists TNF reporter robust z-score 0.22; inactive.
Silencing of LZTS1 (GeneID 11178) [SID315454666] resulted in: TNF reporter robust z-score 2.04; inactive.
Against LZTS1 (GeneID 11178) [SID315454666] the deposit lists TNF reporter robust z-score 1.29; inactive.
With knock-down of LZTS1 (GeneID 11178) [SID315454666] the results were TNF reporter robust z-score 1.41; inactive.
Knock-down of HPGD (GeneID 3248) [SID315449306] came out at: TNF reporter robust z-score -0.05; inactive.
Silencing of HPGD (GeneID 3248) [SID315449306] came out at: TNF reporter robust z-score 1.66; inactive.
Against HPGD (GeneID 3248) [SID315449306] the deposit lists TNF reporter robust z-score 1.1; inactive.
HPGD (GeneID 3248) [SID315449306] showed TNF reporter robust z-score 0.1; inactive.
Silencing of FOXD4L1 (GeneID 200350) [SID315463033] resulted in: TNF reporter robust z-score -1.33; inactive.
FOXD4L1 (GeneID 200350) [SID315463033] scored TNF reporter robust z-score -1.07; inactive.
FOXD4L1 (GeneID 200350) [SID315463033] gave TNF reporter robust z-score -0.1; inactive.
For FOXD4L1 (GeneID 200350) [SID315463033], the values are TNF reporter robust z-score -1.58; active.
For OR2AG2 (GeneID 338755) [SID315463999], the values are TNF reporter robust z-score -0.71; inactive.
Against OR2AG2 (GeneID 338755) [SID315463999] the deposit lists TNF reporter robust z-score -0.05; inactive.
OR2AG2 (GeneID 338755) [SID315463999] gave TNF reporter robust z-score -0.67; inactive.
OR2AG2 (GeneID 338755) [SID315463999] gave TNF reporter robust z-score 0.31; inactive.
